From the M2OR odorant receptor database
Only a part is listed here, and it is no random draw. The calls were merged from several studies; some rest on single wells. Some of the results follow.

Chains of the proteins cited; added tags and fusions are not shown. A change or cut given only in a name is not applied to a line headed by its entry. A line that says so, or that is headed by a name, gives the form on record, which may keep a tag or linker.
UniProt Q8NGI6: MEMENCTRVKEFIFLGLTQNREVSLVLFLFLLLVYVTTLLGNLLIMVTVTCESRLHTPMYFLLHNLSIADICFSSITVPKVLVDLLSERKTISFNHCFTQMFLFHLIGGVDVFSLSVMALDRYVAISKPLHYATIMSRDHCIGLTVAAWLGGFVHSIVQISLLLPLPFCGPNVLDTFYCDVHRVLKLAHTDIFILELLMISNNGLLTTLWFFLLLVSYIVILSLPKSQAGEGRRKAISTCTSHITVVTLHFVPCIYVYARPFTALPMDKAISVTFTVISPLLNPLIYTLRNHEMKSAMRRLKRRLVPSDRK
UniProt Q8NGI4: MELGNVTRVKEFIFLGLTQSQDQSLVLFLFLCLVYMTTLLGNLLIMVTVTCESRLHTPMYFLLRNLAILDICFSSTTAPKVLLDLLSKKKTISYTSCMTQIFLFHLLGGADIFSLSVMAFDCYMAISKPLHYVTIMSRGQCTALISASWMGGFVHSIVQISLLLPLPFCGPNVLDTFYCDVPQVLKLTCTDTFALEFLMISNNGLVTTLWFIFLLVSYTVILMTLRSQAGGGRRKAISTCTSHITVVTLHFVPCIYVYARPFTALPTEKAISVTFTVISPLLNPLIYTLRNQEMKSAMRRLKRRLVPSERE
UniProt Q8NGN0: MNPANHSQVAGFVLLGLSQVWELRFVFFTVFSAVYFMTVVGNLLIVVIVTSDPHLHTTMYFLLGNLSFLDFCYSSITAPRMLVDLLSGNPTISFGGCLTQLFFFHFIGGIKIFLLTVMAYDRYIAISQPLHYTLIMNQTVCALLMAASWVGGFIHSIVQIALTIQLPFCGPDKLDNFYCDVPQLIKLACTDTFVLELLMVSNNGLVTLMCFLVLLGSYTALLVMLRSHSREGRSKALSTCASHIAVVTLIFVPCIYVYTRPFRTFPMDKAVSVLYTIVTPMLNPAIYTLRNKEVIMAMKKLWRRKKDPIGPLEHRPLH
UniProt Q15615: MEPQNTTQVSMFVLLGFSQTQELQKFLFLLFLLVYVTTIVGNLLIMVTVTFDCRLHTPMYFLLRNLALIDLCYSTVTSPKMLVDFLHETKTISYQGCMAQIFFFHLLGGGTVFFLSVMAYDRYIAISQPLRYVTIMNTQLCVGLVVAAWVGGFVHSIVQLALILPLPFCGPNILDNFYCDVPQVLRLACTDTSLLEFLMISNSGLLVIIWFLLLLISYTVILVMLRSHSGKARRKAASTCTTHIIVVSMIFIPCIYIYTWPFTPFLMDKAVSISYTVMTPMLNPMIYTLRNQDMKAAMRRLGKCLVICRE
UniProt P58180: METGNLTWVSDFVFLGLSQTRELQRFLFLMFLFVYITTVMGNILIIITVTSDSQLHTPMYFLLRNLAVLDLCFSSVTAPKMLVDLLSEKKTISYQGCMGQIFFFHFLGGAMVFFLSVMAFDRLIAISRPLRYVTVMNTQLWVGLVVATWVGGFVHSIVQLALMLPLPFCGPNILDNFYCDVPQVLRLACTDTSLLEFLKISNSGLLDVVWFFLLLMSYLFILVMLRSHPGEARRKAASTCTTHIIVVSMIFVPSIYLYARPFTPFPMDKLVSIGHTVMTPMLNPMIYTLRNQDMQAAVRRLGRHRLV
UniProt Q8NGJ1: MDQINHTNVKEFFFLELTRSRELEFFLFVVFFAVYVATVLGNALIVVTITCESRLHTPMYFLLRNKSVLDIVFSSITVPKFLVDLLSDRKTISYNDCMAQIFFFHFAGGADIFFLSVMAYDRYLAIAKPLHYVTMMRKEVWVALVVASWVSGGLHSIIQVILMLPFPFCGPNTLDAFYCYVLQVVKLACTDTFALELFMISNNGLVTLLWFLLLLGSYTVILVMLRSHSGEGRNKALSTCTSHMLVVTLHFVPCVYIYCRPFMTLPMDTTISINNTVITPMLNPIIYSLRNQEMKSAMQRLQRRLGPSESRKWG
OR4CF, as listed by the source: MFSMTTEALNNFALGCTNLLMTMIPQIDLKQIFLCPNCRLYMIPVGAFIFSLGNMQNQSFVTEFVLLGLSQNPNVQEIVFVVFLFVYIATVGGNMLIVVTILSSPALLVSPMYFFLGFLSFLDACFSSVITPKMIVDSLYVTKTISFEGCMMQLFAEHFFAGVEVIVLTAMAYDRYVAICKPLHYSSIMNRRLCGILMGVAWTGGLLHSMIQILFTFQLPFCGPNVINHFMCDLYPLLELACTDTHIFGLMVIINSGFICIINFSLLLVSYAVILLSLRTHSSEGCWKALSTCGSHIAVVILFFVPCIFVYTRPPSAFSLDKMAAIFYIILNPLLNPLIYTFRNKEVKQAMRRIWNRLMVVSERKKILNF
OR4D1, as listed by the source: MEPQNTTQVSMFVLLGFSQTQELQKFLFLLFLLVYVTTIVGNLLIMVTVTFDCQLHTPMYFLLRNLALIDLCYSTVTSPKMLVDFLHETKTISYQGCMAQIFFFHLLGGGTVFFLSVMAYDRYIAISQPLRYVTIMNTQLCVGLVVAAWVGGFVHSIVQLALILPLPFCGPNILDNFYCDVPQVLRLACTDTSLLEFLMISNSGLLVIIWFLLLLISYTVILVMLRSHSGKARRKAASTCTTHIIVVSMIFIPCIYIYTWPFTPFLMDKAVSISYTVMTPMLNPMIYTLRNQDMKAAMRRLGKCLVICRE
OR4D2, as listed by the source: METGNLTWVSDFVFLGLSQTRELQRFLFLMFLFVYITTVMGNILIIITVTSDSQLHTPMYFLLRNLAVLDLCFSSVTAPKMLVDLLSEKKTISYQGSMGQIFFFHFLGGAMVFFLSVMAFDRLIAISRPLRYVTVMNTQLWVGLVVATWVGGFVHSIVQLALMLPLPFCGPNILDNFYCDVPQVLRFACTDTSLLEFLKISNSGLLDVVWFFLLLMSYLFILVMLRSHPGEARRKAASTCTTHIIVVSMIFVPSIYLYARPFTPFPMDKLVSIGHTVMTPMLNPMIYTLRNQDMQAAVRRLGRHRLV

Tests used:
Details in all cases: stereoisomer not certain
[1] = system: OR4CF
Summary of the method: (§1)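 Values were gathered from published papers (main text and supplementary material), with extra details requested from the original authors when needed, and checked for typos and inconsistencies. Each receptor–molecule pair is called responsive (active) if the original authors judged the measured signal statistically different from baseline, and non-responsive (inactive) otherwise. Assay methods varied by source, often transient mammalian cell-line luciferase assays. Recorded details include cell line, G-protein, co-transfected protein and tags.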

[2] = system: T1, OR4CG
T1 sequence (whole entry): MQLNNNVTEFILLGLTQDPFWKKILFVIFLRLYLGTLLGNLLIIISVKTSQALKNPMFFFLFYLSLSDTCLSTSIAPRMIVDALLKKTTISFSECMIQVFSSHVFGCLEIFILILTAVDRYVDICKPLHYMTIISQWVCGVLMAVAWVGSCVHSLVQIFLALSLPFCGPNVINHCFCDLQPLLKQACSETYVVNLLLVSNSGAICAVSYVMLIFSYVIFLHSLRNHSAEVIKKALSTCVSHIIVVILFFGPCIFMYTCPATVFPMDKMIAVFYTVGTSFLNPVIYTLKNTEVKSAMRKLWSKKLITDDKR
Summary of the method: as §1

[3] = target: OR4D10 (Homo sapiens) (UniProt Q8NGI6)
Summary of the method: as §1

[4] = target: OR4D11 (Homo sapiens) (UniProt Q8NGI4)
Summary of the method: as §1

[5] = system: OR4D1
Summary of the method: as §1

[6] = system: OR4D2
Summary of the method: as §1

[7] = target: OR4D5 (Homo sapiens) (UniProt Q8NGN0)
Summary of the method: as §1

[8] = target: OR4D1 (Homo sapiens) (UniProt Q15615)
Summary of the method: as §1

[9] = target: OR4D2 (Homo sapiens) (UniProt P58180)
Summary of the method: as §1

[10] = target: OR4D6 (Homo sapiens) (UniProt Q8NGJ1)
Summary of the method: as §1

Measured: odorant receptor agonist call

C=CCc1ccc(OC)c(OC)c1
active: [2]
not listed: [8] | [9] | [10]
inactive: all other assays above

CC(C)CC(=O)O
not listed: [8] | [9] | [10]
inactive: all other assays above

CC12C=CCC1C1CCC3=CC(=O)CCC3(C)C1CC2 (stereo not given)
not listed: [8] | [9] | [10]
inactive: all other assays above

CCCC(=O)O
not listed: [8] | [9] | [10]
inactive: all other assays above

CC12C=CCC1C1CCC3CC(=O)CCC3(C)C1CC2 (stereo not given)
not listed: [3]
inactive: all other assays above

O=C1CCCCCCCCCCCC(=O)OCCO1
active: [3]
not listed: [8] | [9] | [10]
inactive: all other assays above

CC(=O)C(C)=O
not listed: [8] | [9] | [10]
inactive: all other assays above

O=C1CCCCCCCCCCCCCCO1
not listed: [8] | [9] | [10]
inactive: all other assays above

c1ccc(Oc2ccccc2)cc1
not listed: [8] | [9] | [10]
inactive: all other assays above

CC1=CCC(C(C)(C)O)CC1 (stereo not given)
not listed: [8] | [9] | [10]
inactive: all other assays above

CCC=CCCO
not listed: [8] | [9] | [10]
inactive: all other assays above

CCCCCCCC=O
not listed: [8] | [9] | [10]
inactive: all other assays above

c1cnccn1
not listed: [8] | [9] | [10]
inactive: all other assays above

C=CCSCC=C
not listed: [8] | [9] | [10]
inactive: all other assays above

COC(=O)c1ccccc1O
not listed: [8] | [9] | [10]
inactive: all other assays above

CCCCCCCCOC(C)=O
not listed: [8] | [9] | [10]
inactive: all other assays above

CC(C)(C)c1ccc(CCC=O)cc1
not listed: [8] | [9] | [10]
inactive: all other assays above

CC(C)C(=O)O
not listed: [8] | [9] | [10]
inactive: all other assays above

CC(=O)OC(C)(C)C1CC=C(C)CC1 (stereo not given)
not listed: [8] | [9] | [10]
inactive: all other assays above

COc1ccccc1O
not listed: [8] | [9] | [10]
inactive: all other assays above

C=CC(C)(O)CCC=C(C)C (stereo not given)
not listed: [8] | [9] | [10]
inactive: all other assays above

CC(=O)OC1CC2CCC1(C)C2(C)C (stereo not given)
not listed: [8] | [9] | [10]
inactive: all other assays above

C=CCc1ccc(OC(C)=O)c(OC)c1
active: [9] | [7]
inactive: [1] | [2] | [3] | [4] | [5]

CC12CCC(CC1)C(C)(C)O2
not listed: [8] | [9] | [10]
inactive: all other assays above

CCCCCC(=O)O
not listed: [8] | [9] | [10]
inactive: all other assays above

CCCCCCCOC(C)=O
not listed: [8] | [9] | [10]
inactive: all other assays above

COC(=O)c1ccccc1
inactive: [1] | [3] | [4] | [5] | [6]

CCCCCCCC=CC=O
active: [2]
inactive: [1] | [3] | [4] | [6] | [7]

CCC1(O)C2(C)CCC(C2)C1(C)C (stereo not given)
not listed: [8] | [9] | [10]
inactive: all other assays above

COc1cc(C)ccc1O
not listed: [8] | [9] | [10]
inactive: all other assays above

CC1=NC(C)SC1C (stereo not given)
inactive: [1] | [3] | [4] | [5] | [6]

CC(=O)c1ccccc1
inactive: [1] | [3] | [4] | [5] | [6]

CCCCCC(C)=O
inactive: [1] | [3] | [4] | [5] | [6]

CC1CCC(C(C)C)C(O)C1 (stereo not given)
inactive: [1] | [2] | [3] | [4] | [6] | [7]

CC(C)C=O
not listed: [8] | [9] | [10]
inactive: all other assays above

O=CCc1ccccc1
inactive: [1] | [3] | [4] | [5] | [6]
active: [2] | [7]

COc1cc(C=O)ccc1O
not listed: [8] | [9] | [10]
inactive: all other assays above

O=C1CCCCC1
inactive: [1] | [3] | [4] | [5] | [6]

CCCCCOC(C)=O
not listed: [8] | [9] | [10]
inactive: all other assays above

CCCCCCCCCC=O
not listed: [8] | [9] | [10]
inactive: all other assays above

CC=Cc1ccc(O)c(OC)c1
active: [2] | [7]
inactive: [3] | [4] | [5] | [6]

CC(C)CCC(=O)O
not listed: [8] | [9] | [10]
inactive: all other assays above

CC(C)(O)CCCC1=CCC(C=O)CC1 (stereo not given)
inactive: [2] | [7]

CCCCO
not listed: [8] | [9] | [10]
inactive: all other assays above

CCCCCCOC(=O)CCC
not listed: [8] | [9] | [10]
inactive: all other assays above

C=C(C)C1CCC2=CC(=O)CC(C)C2(C)C1 (stereo not given)
inactive: [2]
active: [7]

CC1COCc2cc3c(cc21)C(C)(C)C(C)C3(C)C (stereo not given)
inactive: [2] | [3] | [4] | [6] | [7]
active: [5]

CC(C)=CCCC(C)=CC=O
not listed: [8] | [9] | [10]
inactive: all other assays above

CC(=O)OCC=C(C)CCC=C(C)C
inactive: [1] | [3] | [4] | [5] | [6]
active: [2] | [7]

CC12CCC(C1)C(C)(C)C2=O (stereo not given)
active: [7]
not listed: [8] | [9] | [10]
inactive: all other assays above

CCCCCCCCCCC=O
not listed: [8] | [9] | [10]
inactive: all other assays above
